Test results published in PubChem BioAssay AID504834 (National Center for Advancing Translational Sciences (NCATS), 2011).
Hit rate of the full screen: of about 320,000 compounds, about 22,000 (6.9%) were called active. Inconclusive results, whose numbers are uncertain, are shown with a selection of clear calls. Calls follow the shape of the dose curve; as a rule, active = well fitted inhibition curve with a large enough effect; inconclusive = small, poorly fitted or top-dose-only effect, or another doubt; inactive = no such curve, though single readings can be large or run the other way. Potencies beside an inconclusive call are fits to weak or partial responses and may not hold up.

experiment: Primary qHTS for delayed death inhibitors of the malarial parasite plastid, 96 hour incubation; details: P. falciparum luciferase reporter growth; series mostly up to 28.7 µM; activity change, negative = inhibition: at the top concentration
Method in brief: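 Infected RBCs, 2% Hct / 0.05% parasitemia final; luciferase-reporter P. falciparum; cpd 96 h, 37 C, 5% CO2; luciferase detection reagent; luminescence.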
% is scaled to controls: 0 for no effect and ±100 for the full control effect; potency is read from the fitted curve at half-maximal effect.

Row | Compound | activity change, negative = inhibition | Potency
1 | COC(=O)C12CCC(C)(c3nc4ccccc4nc31)C2(C)C (stereo not given) | inactive: 2.34% | 
2 | CCc1ccc(N(C(=O)c2ccco2)C(C(=O)NC2CCCC2)c2ccncc2)cc1 (stereo not given) |  | inconclusive: 0.928 µM [inhibitor, full curve, poor fit]
3 | CC(CNCC1CCCO1)COc1cccc2ccccc12 (stereo not given) |  | inconclusive: 18.5 µM [inhibitor, single point]
4 | C=CCCN(C(CC(C)C)C(=O)OC)S(=O)(=O)c1cc(Br)ccc1Br (stereo not given) |  | inconclusive: 11.7 µM [inhibitor, partial curve]
5 | NS(=O)(=O)c1ccc(NC(=S)NCCc2ccccc2)cc1 | inactive: 111% | 
6 | COc1ccc(C(=O)C2CCCN(C(=O)c3noc4c3CCCC4)C2)c(C)c1 (stereo not given) |  | inconclusive: 0.0738 µM [inhibitor, full curve, poor fit]
7 | CC1=C/C(=N\N=C2\NC(=O)C(CC(=O)Nc3ccccc3F)S2)CC(C)(C)C1 (stereo not given) | inactive: 0.433% | 
8 | COC(=O)C1=C(C)N(Cc2ccccc2)C(=NCc2ccc(OC)cc2)N[C@H]1c1cccc(F)c1 |  | inconclusive: 18.5 µM [inhibitor, single point]
9 | CCn1c(=N)n(CC(=O)c2cccc(OC)c2)c2ccccc21 | inactive: 48.5% | 
10 | Cc1ccc(C(=O)Nc2ccc(S(=O)(=O)N3CCCC3)cc2)s1 |  | active: 13.1 µM
11 | Cc1ccc(OC(=O)c2cccnc2)cc1 |  | active: 11.7 µM
12 | COc1cc(NC(=O)c2ccc([N+](=O)[O-])o2)ccc1NC(=O)c1ccco1 |  | inconclusive: 9.28 µM [inhibitor, partial curve, poor fit]
13 | CC(=O)c1cc(C#N)c(NCc2cc(-c3ccccc3)no2)nc1C |  | inconclusive: 4.15 µM [inhibitor, partial curve, poor fit]
14 | CCN(CC(=O)Nc1c(C(=O)OC)[nH]c2ccc(Cl)cc12)c1ccc2c(c1)OCO2 |  | inconclusive: 18.5 µM [inhibitor, single point]
15 | CN1CCN(C(=O)CSc2nc(-c3ccco3)cc(C(F)(F)F)n2)CC1 | inactive: 0% | 
16 | CCOc1ccc(CCNC(=O)c2cc3ccccn3n2)cc1OCC | inactive: 18.2% | 
17 | COc1ccc2ncc(S(=O)(=O)c3ccccc3)c(N3CCC4(CC3)OCCO4)c2c1 |  | inconclusive: 2.33 µM [inhibitor, full curve]
18 | CC(C)(S)[C@@H](N)C(=O)O |  | inconclusive: 18.5 µM [inhibitor, single point]
19 | COc1ccc(CCNC(=O)CN2C(=O)c3cccc4cccc(c34)C2=O)cc1OC |  | active: 10.4 µM
20 | COc1cc2c(cc1OC)CN(CC(=O)NC(=O)NCc1ccco1)CC2 |  | inconclusive: 9.28 µM [inhibitor, partial curve, poor fit]

Pulled by structure from above:
Row | Compound | activity change, negative = inhibition | Potency
15 | CN1CCN(C(=O)CSc2nc(-c3ccco3)cc(C(F)(F)F)n2)CC1 | inactive: 0% | 
7 | CC1=C/C(=N\N=C2\NC(=O)C(CC(=O)Nc3ccccc3F)S2)CC(C)(C)C1 (stereo not given) | inactive: 0.433% | 
